PubChem BioAssay AID1259254, NCATS – 2017

- Screen: 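Gene knock-downs that lead to re-replication, shown by excess G2 DNA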 (primary screen)
- System: human HCT116 colorectal cancer cells
- Reagent: single siRNA against human genes
- Time to read-out: 3 days
- Detection: 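Nuclei stained with Hoechst and imaged; cell-cycle phase assigned by DNA content; G2 share scaled per plate, non-targeting siRNA 0%, GMNN siRNA 100%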
- Scale: G2 robust z-score and G2 cells, % of GMNN control: higher = more G2 cells, more excess DNA replication
- Call rule: 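An siRNA counts as active if its G2 robust z-score lies at least 5 MADs above the screen median; here such calls match roughly 38% of GMNN control or more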
This is an unselected part of about 59,000 reagents. About 1,550 of all reagents (2.6%) count as active. 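G2 share is only a proxy for re-replication; each gene was hit by three separate siRNAs, and active genes were retested.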 A number with no mark means an inactive call. Reagents against one gene are numbered here. Not all columns of the deposit are shown. The record does not give: the amount of reagent.

| gene symbol | siRNA no. | G2 robust z-score | G2 cells, % of GMNN control |
| --- | --- | --- | --- |
| F8A2 | 1 | 1.24 | 11.7 |
| F8A2 | 2 | -0.487 | -0.461 |
| F8A2 | 3 | -1.2 | -5.48 |
| DGKH | 1 | 7.66 (active) | 56.8 |
| DGKH | 2 | 1.49 | 13.5 |
| DGKH | 3 | -0.496 | -0.522 |
| DLX4 | 1 | 0.76 | 8.31 |
| DLX4 | 2 | 0.629 | 7.39 |
| DLX4 | 3 | 10.6 (active) | 77.6 |
| EIF4A2 | 1 | 5.66 (active) | 42.8 |
| EIF4A2 | 2 | -0.666 | -1.72 |
| EIF4A2 | 3 | -0.4 | 0.151 |
| TIMM44 | 1 | 5.42 (active) | 41.1 |
| TIMM44 | 2 | -0.179 | 1.71 |
| TIMM44 | 3 | -0.572 | -1.06 |
| HNF1A | 1 | 0.0326 | 3.2 |
| HNF1A | 2 | 0.993 | 9.96 |
| HNF1A | 3 | 8.42 (active) | 62.2 |
| CDC42P6 | 1 | 2.3 | 19.2 |
| CDC42P6 | 2 | 0.807 | 8.65 |
| CDC42P6 | 3 | 0.61 | 7.26 |
| C1QBP | 1 | -0.469 | -0.33 |
| C1QBP | 2 | -0.0301 | 2.76 |
| C1QBP | 3 | -1 | -4.09 |
| ATOH8 | 1 | 2.63 | 21.5 |
| ATOH8 | 2 | 1.51 | 13.6 |
| ATOH8 | 3 | 1.75 | 15.3 |
| EML5 | 1 | -0.211 | 1.48 |
| EML5 | 2 | 0.636 | 7.44 |
| EML5 | 3 | 0.319 | 5.22 |
| SGCZ | 1 | -0.0676 | 2.49 |
| SGCZ | 2 | 3.2 | 25.5 |
| SGCZ | 3 | -0.877 | -3.2 |
| PNMA3 | 1 | 0.264 | 4.82 |
| PNMA3 | 2 | 1.3 | 12.1 |
| PNMA3 | 3 | -0.981 | -3.93 |
| LEFTY1 | 1 | -0.121 | 2.12 |
| LEFTY1 | 2 | -0.953 | -3.74 |
| LEFTY1 | 3 | -0.73 | -2.17 |
| ANKRD17 | 1 | 5.11 (active) | 38.9 |
| ANKRD17 | 2 | 0.0998 | 3.67 |
| ANKRD17 | 3 | -1.13 | -5 |
| SORCS1 | 1 | -0.323 | 0.695 |
| SORCS1 | 2 | 0.0818 | 3.54 |
| SORCS1 | 3 | 2.53 | 20.8 |
| ZFP42 | 1 | 0.751 | 8.25 |
| ZFP42 | 2 | 1.6 | 14.2 |
| ZFP42 | 3 | 0.246 | 4.7 |

Copied from the list.
Under “G2 robust z-score”, LEFTY1 #3 has -0.73
Under “G2 robust z-score”, SGCZ #1 has -0.0676
Under “G2 robust z-score”, C1QBP #3 shows -1
PNMA3 #2, G2 robust z-score: 1.3
